Source: patent US20250108358A1, “PHOTOCHEMICALLY DRIVEN REGENERATION OF CARBON DIOXIDE SORBENTS” (UT-Battelle, LLC, priority 2023, published 2025)
Where two headings read alike, the source gives them in different places.

What was measured:
[1] = Total inorganic carbon (TIC) analysis, simulated system with KHCO3
Method: Total inorganic carbon analysis: To quantify the amount of total inorganic carbon converted to CO2, the quantities of bicarbonate in the solution before and after the irradiation were determined using a total inorganic carbon analyzer consisting of an acidification module and a coulometric detection. […] Air was used as carrier gas (100 mL/min) in all experiments. 1 mM KHCO3 solution was tested similarly as the reference sample. Calculations were based on sample volume and 1 M Na2CO3 was used as the standard solution.

[2] = Head space CO2 release measurement (infrared sensor, 470 nm LED)
Description: This step is important to reproducibly measure the CO2 release as described below. […] After the reading of CO2 was steady, irradiation was applied from outside of the glass chamber using a 470 nm LED with moderate power (˜ 13 mW/cm^2). The CO2 released to the chamber was monitored using a head space method, as also used in previous studies. The concentration of CO2 gas in the chamber was monitored by the sensor and compared to that of a standard. Not only does this method directly measure the CO2 gas released, but also it is suitable for studying relatively small samples with good sensitivity. […] Addition of a strong acid leads to complete decomposition of the bicarbonate and CO2 release. […] It also reacts with CO2 via an acid-base reaction to form bicarbonate salt.

[3] = pH measurements of mPAH 1 solutions under 355 nm lamp irradiation; format: physicochemical; details: 2 mM mPAH 1 aqueous solution, irradiated for 30 minutes
Description: Light sources: The light source, referred as the 355 nm lamp thereafter, is a portion of the output of an Oriel 200 W mercury-xenon lamp, which was selected using a 2″ round Oriel broadband filter centered at 355 nm with a full width at half maximum of ˜150 nm and highest transmission of ˜90% (Filters 51664 and 59814). The photon fluxes at the sample position was ˜500 μmol·m^−2·s^−1, which measured using a handheld meter.
pH measurements and absorption spectra measurements: Typically for all experiments using the 355 nm lamp, 6 mL of solution mixtures were placed in a glass vial of diameter ˜2 cm and pH variations of the solutions upon light exposure were monitored continuously using a pH meter. Solutions were exposed to air and continuously stirred during pH measurements and sealed and kept in the dark without stirring for the mPAH 1 reverse reaction. Calculated amount of bicarbonate was replaced prior to second and third cycles. All absorption spectra during a given reaction event were acquired using a UV-vis spectrometer by taking a small amount (˜200 μL) of solution. Co-existence of different mPAH 1 conformers were verified using 1H NMR spectroscopy and theoretical calculations.

[4] = TGA-MS quantification of CO2 present in solution
[5] = pH change of mPAH 2 in distilled water with 470 nm LED; format: physicochemical
[6] = pH of mPAH 2/morpholine solution over CO2 loading and irradiation; format: physicochemical; details: 20 minutes after irradiation
[7] = NMR study of proton transfer between mPAH 2 and morpholine in the dark; format: physicochemical; details: 1:1 morpholine/mPAH 2, 10 mM each
[8] = 1 mM mPAH 2 in distilled water, 470 nm LED for 5 minutes

O=C([O-])O.[K+] [KHCO3, potassium bicarbonate, reference compound]
Amount of bicarbonate in the solution ([1]; 1 mM KHCO3 alone (reference sample)): 11.42 ± 0.22 mg/L

O=C([O-])O.[Na+] [NaHCO3, reference compound]
CO2 released [2]: 5.17×10^3 ppm

O=S(=O)([O-])CCC[n+]1c(/C=C/c2cc(S(=O)(=O)[O-])cc3cn[nH]c23)sc2ccccc21.[Na+] [mPAH 1]
pH reached upon irradiation [3]: 5.2
Amount of bicarbonate in the solution ([1]; 1 mM mPAH 1 + 1 mM KHCO3, after irradiation): 5.12 ± 0.19 mg/L
Amount of bicarbonate in the solution ([1]; 1 mM mPAH 1 + 1 mM KHCO3, before irradiation): 12.02 ± 0.03 mg/L
Amount of bicarbonate in the solution ([1]; 2 mM mPAH 1 irradiated (10 mL), added 2 mM KHCO2 (10 mL), reaction in dark): 11.60 ± 0.25 mg/L
Amount of bicarbonate in the solution ([1]; 2 mM mPAH 1 irradiated (10 mL), added 2 mM KHCO2 (10 mL), reaction under irradiation): 5.43 ± 0.00 mg/L
weight loss due to dissolved CO2 ([4]; 1 mM KHCO3 + 1 mM mPAH 1, control sample (as prepared)): 1.0%
weight loss percentage of dissolved CO2 ([4]; 1 mM KHCO3 + 1 mM mPAH 1, exposed to air, reacted under dark conditions): 1.8%
weight loss percentage of dissolved CO2 ([4]; 1 mM KHCO3 + 1 mM mPAH 1, photo-irradiated sample): 1.5%

COC(=O)c1ccc2sc(/C=C/c3cc(S(=O)(=O)[O-])cc4cn[nH]c34)[n+](CCCS(=O)(=O)O)c2c1 [mPAH 2]
pH after keeping in the dark ([5]; 1 mM mPAH 2, in the dark 45 minutes after irradiation): 6.47
pH after irradiation [5, 8]: 3.88
pH lowering versus original pH [5, 8]: 2.67 unit
initial pH ([5]; 1 mM mPAH 2 in distilled water, before irradiation): 6.55
increase of CO2 concentration in the head space (maximum) ([2]; 10 mM mPAH 2/morpholine loaded with CO2, 470 nm LED 15 min, first cycle): 1.74×10^3 ppm
CO2 released ([2]; HCl added to CO2-loaded mPAH 2/morpholine solution, no irradiation): 1.77×10^3 ppm
release of CO2 ([2]; mPAH 2/morpholine, 2nd cycle): 1.57×10^3 ppm
CO2 release ([2]; mPAH 2/morpholine, third cycle): 1.50×10^3 ppm
pH recovered [6]: 7.5
fraction of mPAH 2 changed to the acidic SP [7]: 4/9
fraction of mPAH 2 that kept the protonated trans conformation [7]: 5/9
